According to PubChem BioAssay AID504834 (National Center for Advancing Translational Sciences (NCATS), 2011):
The campaign covered roughly 320,000 compounds. About 22,000 (6.9%) were called active. Inconclusive results, whose numbers are uncertain, are shown with a selection of clear calls. The call rests on the fitted dose curve; in most records, active means well fitted inhibition curve with a large enough effect; inconclusive means small, poorly fitted or top-dose-only effect, or another doubt; inactive means no such curve, though single readings can be large or run the other way. Where the call is inconclusive, the potency comes from a doubtful curve fit.

Test: Primary qHTS for delayed death inhibitors of the malarial parasite plastid, 96 hour incubation
Conditions: P. falciparum luciferase reporter growth; series mostly up to 28.7 µM; activity change, negative = inhibition: at the top concentration
Summary of the method: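 Delayed-death screen, second-generation endpoint: infected erythrocytes, 2% hematocrit, 0.05% parasitemia final; 96 hours at 37 C, 5% CO2; luciferase detection reagent; luminescence decrease equals reduced growth.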
On the % scale 0 is the no-effect control and ±100 the full control effect; potency means the concentration at half of the fitted maximal effect.

| SMILES | activity change, negative = inhibition | Potency |
| --- | --- | --- |
| CC(=O)c1ccc(NC(=O)c2ccc(COc3ccccc3[N+](=O)[O-])o2)cc1 | inactive: -20.1% |  |
| CCCCN1C(=O)C(CC(=O)NCC)SC1=Nc1ccccc1 (centres undefined) |  | inconclusive: 18.5 µM [inhibitor, single point] |
| CCOc1ccc(NC2OC(C)C(O)C(O)C2O)c([N+](=O)[O-])c1 (centres undefined) |  | inconclusive: 11.7 µM [inhibitor, partial curve, poor fit] |
| COc1ccc(NC(=O)C23CC4CC(C2)CC(c2ccc(C)cc2)(C4)C3)cc1 | inactive: 23.7% |  |
| Cc1ccc(-c2ccc(C(=O)Nc3ccccc3)o2)c2ccccc12 |  | inconclusive: 18.5 µM [inhibitor, single point] |
| COc1ccc(CCN2CC(C(=O)Nc3cccc(C(C)=O)c3)CC2=O)cc1OC (centres undefined) |  | inconclusive: 3.29 µM [inhibitor, full curve] |
| COCCn1c(SCC(=O)Nc2ccc(Cl)cn2)nnc1-c1ccncc1 |  | inconclusive: 0.522 µM [inhibitor, full curve, poor fit] |
| COc1ccc(N2CC(C(=O)N3CCN(Cc4ccc5c(c4)OCO5)CC3)CC2=O)cc1 (centres undefined) | inactive: 0% |  |
| Cc1cc(C)nc(SCc2ccc(C(=O)N/N=C/c3cccc(O)c3O)cc2)n1 |  | active: 4.65 µM |
| O=C(c1cccc(Oc2ccccc2)c1)N1CCOCC1 | inactive: 24.2% |  |
| CCc1ccccc1N1C(=O)CN(Cc2cc(OC)c(OC)c(OC)c2)C1=S |  | inconclusive: 13.1 µM [inhibitor, single point] |
| C=CCN(CC=C)Cc1c(C)[nH]c2ccc(C(=O)OCC)cc2c1=O | inactive: -15.3% |  |
| COc1ccc(/C=C2\C(=O)N(Cc3ccc(F)cc3)CC(=O)N2Cc2ccccc2)cc1 |  | active: 14.7 µM |
| O=C(COC(=O)c1ccc(CO)cc1)Nc1ccc(OC(F)F)cc1 | inactive: 24.8% |  |
| Brc1ccc(Oc2ccc(Br)cc2Br)c(Br)c1 | inactive: -8.84% |  |
| CC(C)CCN(C(=O)CCCSc1nc2ccccc2[nH]1)c1c(N)n(Cc2ccccc2)c(=O)[nH]c1=O |  | inconclusive: 11.7 µM [inhibitor, partial curve] |
| CCOc1ccccc1Oc1ccc(C(F)(F)F)cn1 |  | inconclusive: 18.5 µM [inhibitor, single point] |
| COc1cccc(C(=O)N2CCN(c3ncccn3)CC2)c1 | inactive: 0% |  |
| Cc1cccc(OCc2nnc(SCC(=O)N3c4ccccc4CC3C)n2C)c1C (centres undefined) |  | inconclusive: 0.0738 µM [inhibitor, full curve, poor fit] |
| CN(Cc1ccco1)C(=O)CN1C(=O)NC2(CCCCC2)C1=O | inactive: -33.1% |  |
| O=C(NCc1cccnc1)/C(=C/c1ccc(-c2cccc(Cl)c2)o1)S(=O)(=O)c1ccccc1 |  | active: 3.29 µM |
| O=C(COC(=O)CCC(=O)c1cccs1)NCc1ccccc1 | inactive: 41.1% |  |
| COc1ccc(NC(=O)c2ccccc2-c2ccc(C(F)(F)F)cc2)cc1S(=O)(=O)N1CCOCC1 |  | inconclusive: 18.5 µM [inhibitor, single point] |

| SMILES | activity change, negative = inhibition | Potency |
| --- | --- | --- |
| Cc1ccc(NC(=O)NCCN2CCN(C(=O)Nc3ccc(C)cc3)CC2)cc1 |  | inconclusive: 1.31 µM [inhibitor, full curve] |
| CNC(=O)/C(C#N)=C/c1c(N2CCN(c3cccc(Cl)c3)CC2)nc2c(C)cccn2c1=O |  | inconclusive: 0.185 µM [inhibitor, full curve, poor fit] |
| O=C(C1=C[C@H](c2ccc(Br)cc2)C[C@H](OCCCCO)O1)N1CCOCC1 | inactive: 0.211% |  |
| O=[N+]([O-])c1ccc(N2CCN(S(=O)(=O)c3ccccc3)CC2)cc1N1CCc2ccccc2C1 |  | inconclusive: 18.5 µM [inhibitor, single point] |
| O=C(NCc1ccccc1)c1ccc(N2CCC3(CC2)CC(c2ccccc2)=NO3)c([N+](=O)[O-])c1 |  | inconclusive: 0.0131 µM [inhibitor, full curve, poor fit] |
| COc1ccc(NC(=S)NC23CC4CC(CC(C4)C2)C3)cc1OC |  | inconclusive: 18.5 µM [inhibitor, single point] |
| COCCN(C(=O)c1ccc(N2CCCC2=O)cc1)c1c(N)n(CC(C)C)c(=O)[nH]c1=O |  | inconclusive: 10.4 µM [inhibitor, single point] |
| CCc1ccc(CN2CCCC(C(=O)Nc3ccc(-c4cscn4)cc3)C2)o1 (centres undefined) | inactive: 45.9% |  |
| Cc1ccc(NC(=O)c2cc(C)n(-c3cccc(C)c3)c2C)cc1 | inactive: -87.1% |  |
| CCOC(=O)C1=C(C)NC2=C(C(=O)C(C(=O)OCC)C(c3ccccc3OC)C2)C1c1ccccn1 (centres undefined) |  | active: 3.7 µM |
| COc1cccc(N(CC(=O)Nc2ccc3c(c2)OCO3)S(=O)(=O)c2ccccc2)c1 |  | inconclusive: 10.4 µM [inhibitor, single point] |
| CCOC(=O)c1c(C)nsc1NC(=O)C1CCCCC1 |  | inconclusive: 8.28 µM [inhibitor, partial curve, poor fit] |
| COCCN=C1Sc2nc3ccc(C)cc3cc2CN1Cc1ccco1 |  | inconclusive: 10.4 µM [inhibitor, single point] |
| CCOc1ccc(C(=O)NCC(=O)NC(C)CCc2ccccc2)cc1OCC (centres undefined) |  | inconclusive: 10.4 µM [inhibitor, single point] |
| CCn1c(SCC(=O)c2[nH]c(C)c(C(C)=O)c2C)nnc1-c1ccccc1 |  | inconclusive: 4.15 µM [inhibitor, single point] |
| Cc1ccc(S(=O)(=O)NCC(=O)NCC(=O)OC(C(=O)NC(N)=O)C(C)C)cc1C (centres undefined) |  | inconclusive: 1.04 µM [inhibitor, partial curve, poor fit] |
| CCC(C)(C)NC(=O)c1cc([N+](=O)[O-])ccc1N1CCCCC1 |  | inconclusive: 10.4 µM [inhibitor, partial curve, poor fit] |
| COC(=O)C1C2c3ccccc3OC1(C)N=c1s/c(=C/c3cnn(C)c3)c(=O)n12 (centres undefined) |  | inconclusive: 11.7 µM [inhibitor, single point] |
| COc1cccc(NC(=S)N(Cc2ccc(C)cc2)Cc2ccccn2)c1 |  | inconclusive: 18.5 µM [inhibitor, single point] |
| Cn1c(=O)n(C)c2cc(S(=O)(=O)Nc3ccc(F)cc3)ccc21 |  | inconclusive: 11.7 µM [inhibitor, single point] |
| Cc1cc(Nc2cccc(C)c2C)n2ncnc2n1 |  | inconclusive: 20.8 µM [inhibitor, partial curve, poor fit] |
| COc1ccc(-c2c(-c3cc(OC)cc(OC)c3)n(C)c3ccc(-c4ccc(S(N)(=O)=O)cc4)cc23)cc1 |  | inconclusive: 14.7 µM [inhibitor, single point] |
| Nc1nnc(N)c2ccccc12 |  | inconclusive: 9.28 µM [inhibitor, partial curve, poor fit] |

| SMILES | activity change, negative = inhibition | Potency |
| --- | --- | --- |
| CC(C)N(Cc1cn(C)nc1-c1cccc(Cl)c1)CC1CCC(=O)N1 (centres undefined) |  | inconclusive: 13.1 µM [inhibitor, partial curve, poor fit] |
| CCCCc1ccc(NC(=O)C(=O)NCCN2CCN(Cc3ccc([N+](=O)[O-])cc3)CC2)cc1 |  | inconclusive: 3.7 µM [inhibitor, full curve, poor fit] |
| Cc1cccc(N2CCN(C(=O)C3CCN(S(=O)(=O)N4CCOCC4)CC3)CC2C)c1 (centres undefined) | inactive: -21.3% |  |
| COc1ccc(C(=O)NC(=S)NNC(=O)c2ccc(NC(C)=O)cc2)cc1Br | inactive: -3.2% |  |
| O=C(c1ccc2c(c1)OCO2)N1CCC2(CC1)Oc1ccc(F)cc1C(=O)C21CC(c2ccccc2)=NO1 (centres undefined) |  | inconclusive: 11.7 µM [inhibitor, single point] |
| Cc1nc2cc(F)ccc2n1C1CCN(C(=O)c2c(F)cccc2F)CC1 | inactive: -10.5% |  |
| Cc1nc2nc(SCC(=O)C(C)(C)C)[nH]c2cc1Br | inactive: -22.9% |  |
| Cc1ccc(S(=O)(=O)Nc2ccccc2C(=O)Nc2sccc2C(=O)NN(C)C)cc1 |  | inconclusive: 1.04 µM [inhibitor, single point] |
| CCOC(=O)CNC(=O)CSc1nnc(-c2ccc(OC)cc2)n1CC |  | inconclusive: 16.5 µM [inhibitor, single point] |
| C(=C\c1ccccc1)/C=N/Nc1ccc2nncn2n1 | inactive: 18.8% |  |
| N#Cc1cnn(Cc2ccccc2)c1N |  | inconclusive: 18.5 µM [inhibitor, partial curve, poor fit] |
| Cc1ccccc1OCCNC(=S)Nc1ccccc1 |  | inconclusive: 14.7 µM [inhibitor, single point] |
| Nn1c(Cc2cccc3ccccc23)nnc1SCCOc1ccc(Br)cc1 |  | inconclusive: 8.28 µM [inhibitor, partial curve] |
| Cc1ccc(C(=O)N2CCN(C(=O)c3ccco3)CC2)cc1NC(=O)c1ccco1 |  | inconclusive: 18.5 µM [inhibitor, single point] |
| O=C(CSc1nc2ccccc2n1CC(=O)N1CCCC1)Nc1ccc2c(c1)OCO2 | inactive: 33.6% |  |
| CC(C)CCNC(=O)C(c1ccco1)N(Cc1cccs1)C(=O)Cn1nnc2ccccc21 (centres undefined) |  | inconclusive: 13.1 µM [inhibitor, single point] |
| Oc1c(CNc2ccccc2)cc(COCc2ccccc2)c2cccnc12 |  | active: 3.29 µM |
| CC(C)CCNC(=O)C(C)N(Cc1ccc(F)cc1)C(=O)c1ccc(CN2CCOCC2)o1 (centres undefined) | inactive: 19.5% |  |
| Cc1onc(-c2c(Cl)cccc2Cl)c1C(=O)N1CCN(Cc2ccccc2)CC1 |  | inconclusive: 13.1 µM [inhibitor, single point] |
| Cc1ccccc1OCCC(=O)OCC(=O)Nc1cc(S(=O)(=O)N2CCOCC2)ccc1Cl | inactive: 8.41% |  |
| CCCCCc1nc(N)c(C#N)c(-c2ccco2)c1CCCC |  | inconclusive: 7.38 µM [inhibitor, partial curve, poor fit] |
| c1ccc(OCCCCN2CCCCC2)cc1 | inactive: 27.1% |  |
| CCSc1nnc(-c2sc3nnc(-c4ccccc4)c(-c4ccccc4)c3c2N)o1 |  | inconclusive: 0.329 µM [inhibitor, full curve, poor fit] |

Quoted from the entries so far (six entries):

| SMILES | activity change, negative = inhibition | Potency |
| --- | --- | --- |
| COCCn1c(SCC(=O)Nc2ccc(Cl)cn2)nnc1-c1ccncc1 |  | inconclusive: 0.522 µM [inhibitor, full curve, poor fit] |
| COc1ccc(N2CC(C(=O)N3CCN(Cc4ccc5c(c4)OCO5)CC3)CC2=O)cc1 (centres undefined) | inactive: 0% |  |
| Cc1cc(C)nc(SCc2ccc(C(=O)N/N=C/c3cccc(O)c3O)cc2)n1 |  | active: 4.65 µM |
| O=C(c1cccc(Oc2ccccc2)c1)N1CCOCC1 | inactive: 24.2% |  |
| CCc1ccccc1N1C(=O)CN(Cc2cc(OC)c(OC)c(OC)c2)C1=S |  | inconclusive: 13.1 µM [inhibitor, single point] |
| C=CCN(CC=C)Cc1c(C)[nH]c2ccc(C(=O)OCC)cc2c1=O | inactive: -15.3% |  |
